Measured values: paper PMC6016484

Biological target: T1, endogenous ARL11 in primary mouse BMDMs (mouse (endogenous in BMDMs)) (UniProt Q6P3A9)
T1 sequence: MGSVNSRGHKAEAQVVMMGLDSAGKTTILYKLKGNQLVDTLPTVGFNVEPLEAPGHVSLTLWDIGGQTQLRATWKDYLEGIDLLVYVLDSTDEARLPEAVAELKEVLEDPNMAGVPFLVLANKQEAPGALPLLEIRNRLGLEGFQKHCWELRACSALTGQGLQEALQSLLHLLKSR
Test: co-IP; control or LPS-treated primary BMDMs; lysates precipitated with anti-ARL11 antibody or anti-IgG control antibody; immunoblot for endogenous MAPKs and phospho-ERK1/2

binding: no binding
Substance: endogenous p38 in primary mouse BMDMs

No constants are given. Whether binding was seen depends on the method and setting. In cells and extracts the contact can be indirect.
